These are yes or no findings as the source states them, for the method shown. In cells and extracts the contact can be indirect. Some results given as binding are weak or reduced against the parent protein; the word gives no strength. Each block holds one binder with its values, some of them ahead of it.
What was measured:
[1] = biological target: mouse SIRT5, lentiviral overexpression (SIRT5-OE) (mouse) (UniProt Q8K2C6); test: co-IP; Dynabeads protein A/G with 10 ug anti-SIRT5 or anti-PDHA1 antibody; 250 ug cytoplasmic proteins of control and SIRT5-OE J774A.1 cells, overnight at 4 C; acid elution; blots with anti-PDHA1 and anti-SIRT5
[2] = biological target: sirtuin SIRT5 (mouse (endogenous in J774A.1)) (UniProt Q8K2C6); test: as above
pBIFC-VC155-SIRT5 = pBIFC-VC155-SIRT5 (UniProt Q8K2C6); test: split reporter; BiFC: pBIFC-VN173-PDHA1 and pBIFC-VC155-SIRT5 transfected alone or together into 293 T cells, 48 h; confocal fluorescence images

Protein sequences, listed by entry. Tags and fused reporters are not part of them. Lines headed by an entry give the natural chain unless they say otherwise; changes in a name come on top. Residues count along the entry.
UniProt Q8K2C6, residues 37-310: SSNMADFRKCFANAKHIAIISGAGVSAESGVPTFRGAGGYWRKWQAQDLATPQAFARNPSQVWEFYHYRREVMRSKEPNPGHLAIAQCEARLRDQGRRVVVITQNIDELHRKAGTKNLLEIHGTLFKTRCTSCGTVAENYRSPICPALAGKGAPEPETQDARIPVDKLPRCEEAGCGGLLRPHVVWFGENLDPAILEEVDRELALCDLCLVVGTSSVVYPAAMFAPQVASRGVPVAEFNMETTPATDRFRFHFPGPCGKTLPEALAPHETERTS

binding [1]: binds
binding [2]: binds
B1: PDH E1 component subunit alpha (PDHA1) (protein, UniProt P35486 30-390)
chain: FANDATFEIKKCDLHRLEEGPPVTTVLTREDGLKYYRMMQTVRRMELKADQLYKQKIIRGFCHLCDGQEACCVGLEAGINPTDHLITAYRAHGFTFTRGLPVRAILAELTGRRGGCAKGKGGSMHMYAKNFYGGNGIVGAQVPLGAGIALACKYNGKDEVCLTLYGDGAANQGQIFEAYNMAALWKLPCIFICENNRYGMGTSVERAAASTDYYKRGDFIPGLRVDGMDILCVREATKFAAAYCRSGKGPILMELQTYRYHGHSMSDPGVSYRTREEIQEVRSKSDPIMLLKDRMVNSNLASVEELKEIDVEVRKEIEDAAQFATADPEPPLEELGYHIYSSDPPFEVRGANQWIKFKSVS

binding (pBIFC-VC155-SIRT5): binds
B2: pBIFC-VN173-PDHA1 (protein, UniProt P35486 30-390)
chain: B1 chain
